# The list does not hold the whole screen: it gathers tests that were run many times, whatever their T/C, doses with no T/C, and many T/C values between a quarter and a half above the control. Other doses and runs of a compound stand elsewhere. T/C is the treated group as % of the vehicle group. Some doses have a count of surviving animals in place of a T/C: the source files T/C as zero there, which appears to mark a toxic dose or a test without result, not a measured value. Some doses without a T/C left all or most animals alive at the check, yet need not have been tolerated: survival well below the control is almost never listed, so the zero probably covers shortened survival too. Survivors were counted at the toxicity check, usually on the fifth day, unless a day is given; later deaths do not show. Schedules are NCI's codes, read here as Q, the interval in days (D) or hours (H), X, the number of doses. For survival time, the PubChem record calls one and a half times the control and up active, and a quarter to a half above the control has no call in these data; cut-offs in other NCI protocols can differ. Additions like (4×) stand for listed records that agree. Some entries were tested several times; the results are listed from low to high.
# Test system: CD2F1 mice, L1210 leukemia ip, survival T/C
# Test: NCI In Vivo Anticancer Drug Screen. Data for tumor model L1210 Leukemia (intraperitoneal) in CD2F1 (CDF1) mice
# Details: higher T/C = longer survival
# Procedure, shortened: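 Tumor-bearing mice (transplanted tumor) were split into treated and vehicle control groups, and the measured endpoint of each treated group was divided by that of its vehicle controls.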
# [1] = T/C endpoint: mean survival time, dose: 100.0 mg/kg/injection, schedule: Q04DX003 (ip), vehicle: saline with Tween-80
# [2] = T/C endpoint: mean survival time, dose: 200.0 mg/kg/injection, schedule: Q04DX003 (ip), vehicle: saline with Tween-80
# [3] = T/C endpoint: mean survival time, dose: 400.0 mg/kg/injection, schedule: Q04DX003 (ip), vehicle: saline with Tween-80
compound,measurement,setting,value
CN(C)C(=O)OC1CCCC1[N+](C)(C)CCCCCCCC[N+](C)(C)C1CCCC1OC(=O)N(C)C (configuration not stated),survivor count,"T/C endpoint: mean survival time, dose: 1.25 mg/kg/injection, schedule: Q04DX003 (ip), vehicle: saline",5 of 6
same,survivor count,"T/C endpoint: mean survival time, dose: 1.57 mg/kg/injection, schedule: Q01DX009 (iv), vehicle: methylcellulose (MC)",2 of 6
same,survivor count,"T/C endpoint: mean survival time, dose: 3.13 mg/kg/injection, schedule: Q01DX009 (iv), vehicle: methylcellulose (MC)",0 of 6
same,survivor count,"T/C endpoint: mean survival time, dose: 6.25 mg/kg/injection, schedule: Q01DX009 (iv), vehicle: methylcellulose (MC)",0 of 6
N#Cc1ccccc1C#N,survivor count,"T/C endpoint: mean survival time, dose: 50.0 mg/kg/injection, schedule: Q04DX003 (ip), vehicle: saline with Tween-80",1 of 3
same,survivor count,[1],0 of 3
CC(=O)NCC1(c2ccccc2)CCN(CCCC(=O)c2ccc(F)cc2)CC1,survivor count,"T/C endpoint: mean survival time, dose: 200.0 mg/kg/injection, schedule: Q04DX003 (ip), vehicle: Klucel (hydroxypropylcellulose) (HPC)",6 of 6
NC1=Nc2ccccc2CS1,survivor count,"T/C endpoint: mean survival time, dose: 150.0 mg/kg/injection, schedule: Q01DX001 (ip), vehicle: saline",3 of 6
same,survivor count,"T/C endpoint: mean survival time, dose: 300.0 mg/kg/injection, schedule: Q01DX001 (ip), vehicle: saline",0 of 6
CCC(=O)Oc1ccc(/C=N/NC(N)=S)nc1,T/C,"T/C endpoint: mean survival time, dose: 400.0 mg/kg/injection, schedule: Q04DX002 (ip), vehicle: other",126 % of control
same,T/C,"T/C endpoint: mean survival time, dose: 800.0 mg/kg/injection, schedule: Q04DX002 (ip), vehicle: other",134 % of control
same,T/C,"T/C endpoint: mean survival time, dose: 900.0 mg/kg/injection, schedule: Q01DX001 (ip), vehicle: other",130 % of control
CC(C)(C)c1cc2c3c(c1)Oc1cc(C(C)(C)C)cc4c1C3(O)c1c(cc(C(C)(C)C)cc1O4)O2,survivor count,"T/C endpoint: median survival time, dose: 25.0 mg/kg/injection, schedule: Q01DX009 (ip), vehicle: Klucel (hydroxypropylcellulose) (HPC)",1 of 6
same,survivor count,"T/C endpoint: median survival time, dose: 50.0 mg/kg/injection, schedule: Q01DX009 (ip), vehicle: Klucel (hydroxypropylcellulose) (HPC)",0 of 6
Cc1nc(N=C(N)N)nc2ccc(Cl)cc12,survivor count,"T/C endpoint: mean survival time, dose: 37.5 mg/kg/injection, schedule: Q01DX009 (ip), vehicle: saline",4 of 6
same,survivor count,"T/C endpoint: mean survival time, dose: 75.0 mg/kg/injection, schedule: Q01DX009 (ip), vehicle: saline",2 of 6
COc1cccc(/C(C)=N\NC(=O)c2ccccc2)c1,survivor count,[2],4 of 6
same,survivor count,[3],0 of 6
CCCCCCCCCC[n+]1ccc(C(N)=O)cc1,survivor count,[1],3 of 6
same,survivor count,[2],0 of 6
same,survivor count,[3],0 of 6
COc1ccc(NC(=S)NN)cc1,survivor count,[2],6 of 6
Cc1ccc(Cl)cc1NC(=O)c1ccc([N+](=O)[O-])cc1,survivor count,[2],6 of 6
same,survivor count,[3],6 of 6
Nc1cc2c(cc1Br)-c1ccccc1C2Br (configuration not stated),survivor count,[2],3 of 6
NCc1ccc(O)c(O)c1,T/C,"T/C endpoint: mean survival time, dose: 400.0 mg/kg/injection, schedule: Q01DX009 (ip), vehicle: saline",125 % of control
same,T/C,"T/C endpoint: mean survival time, dose: 600.0 mg/kg/injection, schedule: Q01DX009 (ip), vehicle: saline",129 and 137 % of control
same,T/C,"T/C endpoint: median survival time, dose: 75.0 mg/kg/injection, schedule: Q01DX009 (ip), vehicle: saline",127 % of control
same,T/C,"T/C endpoint: median survival time, dose: 112.5 mg/kg/injection, schedule: Q03HX024 (ip), vehicle: saline",128 % of control (2×)
same,T/C,"T/C endpoint: median survival time, dose: 150.0 mg/kg/injection, schedule: Q01DX009 (ip), vehicle: saline",130 % of control
same,T/C,"T/C endpoint: median survival time, dose: 225.0 mg/kg/injection, schedule: Q03HX024 (ip), vehicle: saline",130 % of control (2×)
same,T/C,"T/C endpoint: median survival time, dose: 300.0 mg/kg/injection, schedule: Q01DX009 (ip), vehicle: saline",128 % of control
same,T/C,"T/C endpoint: median survival time, dose: 600.0 mg/kg/injection, schedule: Q01DX009 (ip), vehicle: saline",142 % of control
same,T/C,"T/C endpoint: median survival time, dose: 800.0 mg/kg/injection, schedule: Q01DX009 (ip), vehicle: saline",146 % of control
CCCC(=O)Nc1ccn(C2OC(COC(=O)CCC)C(OC(=O)CCC)C2OC(=O)CCC)c(=O)n1 (configuration not stated),T/C,"T/C endpoint: mean survival time, dose: 400.0 mg/kg/injection, schedule: Q01DX009 (ip), vehicle: Klucel (hydroxypropylcellulose) (HPC)",132 % of control
CCCCCCCCCCCCCCC(=O)Nc1ccccc1,survivor count,"T/C endpoint: mean survival time, dose: 100.0 mg/kg/injection, schedule: Q01DX001 (ip), vehicle: saline with Tween-80",6 of 6
same,survivor count,"T/C endpoint: mean survival time, dose: 400.0 mg/kg/injection, schedule: Q01DX001 (ip), vehicle: saline with Tween-80",6 of 6
